Source: article PMC10476552
These are yes or no findings as the source states them, for the method shown. Binding seen in cells or lysates may run through a third protein. Some binding calls cover weakened binding; strength is not graded here.

Protein sequences, listed by entry. Tags and fused reporters are not part of them.
UniProt Q8N726: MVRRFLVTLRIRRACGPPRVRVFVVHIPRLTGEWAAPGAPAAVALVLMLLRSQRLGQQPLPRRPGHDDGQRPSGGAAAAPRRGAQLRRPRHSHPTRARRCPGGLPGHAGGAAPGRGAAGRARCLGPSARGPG
UniProt Q13547: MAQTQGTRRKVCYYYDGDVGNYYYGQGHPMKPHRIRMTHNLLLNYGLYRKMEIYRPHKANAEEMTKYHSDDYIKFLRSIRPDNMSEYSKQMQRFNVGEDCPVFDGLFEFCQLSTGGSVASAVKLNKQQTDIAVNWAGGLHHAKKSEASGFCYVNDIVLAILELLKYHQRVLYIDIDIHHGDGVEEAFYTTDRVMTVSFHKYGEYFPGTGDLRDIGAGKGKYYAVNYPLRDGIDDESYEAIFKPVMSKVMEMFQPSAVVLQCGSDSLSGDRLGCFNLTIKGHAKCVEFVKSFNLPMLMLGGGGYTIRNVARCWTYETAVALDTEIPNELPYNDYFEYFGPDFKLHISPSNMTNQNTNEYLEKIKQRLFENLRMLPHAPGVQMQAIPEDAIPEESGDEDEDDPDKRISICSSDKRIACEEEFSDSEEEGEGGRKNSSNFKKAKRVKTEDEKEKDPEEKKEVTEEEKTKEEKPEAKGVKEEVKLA
UniProt Q92769: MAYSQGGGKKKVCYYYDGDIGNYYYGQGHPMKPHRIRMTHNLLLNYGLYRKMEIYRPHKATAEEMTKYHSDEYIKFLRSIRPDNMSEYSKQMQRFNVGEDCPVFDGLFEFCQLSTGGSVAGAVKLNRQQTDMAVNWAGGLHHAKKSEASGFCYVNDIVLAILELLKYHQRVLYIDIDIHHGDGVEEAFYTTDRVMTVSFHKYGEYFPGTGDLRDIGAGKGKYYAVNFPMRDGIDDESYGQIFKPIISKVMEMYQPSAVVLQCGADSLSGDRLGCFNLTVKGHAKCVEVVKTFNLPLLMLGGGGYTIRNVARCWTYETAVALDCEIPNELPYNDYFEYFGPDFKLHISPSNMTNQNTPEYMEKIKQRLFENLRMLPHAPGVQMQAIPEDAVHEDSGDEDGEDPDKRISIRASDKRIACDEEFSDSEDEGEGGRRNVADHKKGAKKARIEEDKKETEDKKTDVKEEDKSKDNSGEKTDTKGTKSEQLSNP
UniProt Q9Y3D8: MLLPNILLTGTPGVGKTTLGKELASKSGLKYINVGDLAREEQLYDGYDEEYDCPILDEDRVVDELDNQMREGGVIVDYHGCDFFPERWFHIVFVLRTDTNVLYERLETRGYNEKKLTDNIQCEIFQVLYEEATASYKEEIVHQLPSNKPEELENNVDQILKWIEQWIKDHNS

Assays:
[1] = target: endogenous p14ARF (human (endogenous in HEK293T and IMR90)) (UniProt Q8N726); experiment: co-IP; endogenous hCINAP and p14ARF, indicated antibodies; cells not given
[2] = target: endogenous p14ARF (human (endogenous in HEK293T and IMR90)) (UniProt Q8N726); experiment: proximity ligation; Duolink PLA in fixed IMR90 cells with anti-hCINAP and anti-p14ARF antibodies
[3] = target: endogenous HDAC1 (histone deacetylase 1) in IMR90 cells (human (endogenous in IMR90)) (UniProt Q13547); experiment: proximity ligation; PLA of hCINAP and HDAC1 in IMR90 cells
[4] = target: HDAC2 (UniProt Q92769); experiment: co-IP + proximity ligation; Supplementary Figure S4C; which of the two methods was used for HDAC2 is not told
[5] = target: p14ARF full-length (FL), transfected (UniProt Q8N726); experiment: co-IP; HEK293T cells transfected with hCINAP and p14ARF FL, N64 or C65
[6] = target: HDAC1 (histone deacetylase 1) in HEK293T cells (UniProt Q13547); experiment: co-IP; hCINAP and HDAC1 in HEK293T cells

Substance	binding [1]	binding [2]	binding [3]	binding [4]	binding [5]	binding [6]
endogenous hCINAP (human coilin-interacting nuclear ATPase protein) (from UniProt Q9Y3D8 1-172)	binds	binds	binds			
hCINAP in HEK293T cells (co-IP experiments with the indicated plasmids) (from UniProt Q9Y3D8 1-172)				no binding	binds	binds
